Experimental data taken from the supplement of paper PMC12823440, “Inhibitors supercharge kinase turnover through native proteolytic circuits” (Nature, 2025).
Counter-ions that a name gives are not always drawn. The list shows a part of the results. The calls rarely recur for the same compound in another form.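 Kinases, fused to nanoluciferase, were expressed in K562 cells; luminescence was measured every 4 h from 2 to 18 h as percent of control (DMSO = 100%, positive control = 0%). A time point is decreased if signal falls significantly (2 sigma). Hits were called by the authors by a rule that is not shown; the count of time points alone does not decide it.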

Sequences of proteins named here, by UniProt entry; tags and fusion partners are left off. A change or cut given only in a name is not applied to a line headed by its entry.
UniProt Q9BRS2: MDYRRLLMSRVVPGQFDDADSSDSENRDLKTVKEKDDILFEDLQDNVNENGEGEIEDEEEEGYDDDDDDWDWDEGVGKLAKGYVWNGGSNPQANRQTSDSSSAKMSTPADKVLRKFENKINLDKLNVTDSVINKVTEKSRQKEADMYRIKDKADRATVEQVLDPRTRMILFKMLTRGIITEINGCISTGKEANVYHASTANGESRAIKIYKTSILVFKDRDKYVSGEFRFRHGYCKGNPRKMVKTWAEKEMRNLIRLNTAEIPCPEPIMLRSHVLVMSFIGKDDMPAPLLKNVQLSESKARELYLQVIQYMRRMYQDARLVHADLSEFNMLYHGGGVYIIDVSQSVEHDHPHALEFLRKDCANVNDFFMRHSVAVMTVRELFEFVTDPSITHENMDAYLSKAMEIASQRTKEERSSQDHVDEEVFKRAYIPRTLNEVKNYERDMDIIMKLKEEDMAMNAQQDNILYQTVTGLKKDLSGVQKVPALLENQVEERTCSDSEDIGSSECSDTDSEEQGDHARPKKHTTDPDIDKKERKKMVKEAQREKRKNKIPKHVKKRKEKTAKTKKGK
UniProt Q13546: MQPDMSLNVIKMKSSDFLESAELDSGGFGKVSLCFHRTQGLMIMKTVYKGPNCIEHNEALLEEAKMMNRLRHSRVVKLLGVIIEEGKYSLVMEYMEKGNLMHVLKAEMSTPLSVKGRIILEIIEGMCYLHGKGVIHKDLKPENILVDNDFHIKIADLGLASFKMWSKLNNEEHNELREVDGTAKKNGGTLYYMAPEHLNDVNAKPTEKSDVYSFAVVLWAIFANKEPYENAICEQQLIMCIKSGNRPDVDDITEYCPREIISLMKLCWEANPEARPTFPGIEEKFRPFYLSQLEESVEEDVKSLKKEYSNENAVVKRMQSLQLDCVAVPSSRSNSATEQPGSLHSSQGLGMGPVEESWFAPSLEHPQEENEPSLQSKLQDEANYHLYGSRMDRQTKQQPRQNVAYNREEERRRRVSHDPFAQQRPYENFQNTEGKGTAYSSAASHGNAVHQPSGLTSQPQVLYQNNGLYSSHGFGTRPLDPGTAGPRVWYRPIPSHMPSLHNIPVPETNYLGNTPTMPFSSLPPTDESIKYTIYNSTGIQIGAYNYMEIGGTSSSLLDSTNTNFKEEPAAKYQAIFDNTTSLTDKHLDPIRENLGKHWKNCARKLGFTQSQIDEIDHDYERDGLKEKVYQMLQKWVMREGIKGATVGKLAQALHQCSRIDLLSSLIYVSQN
UniProt Q01974, whole entry: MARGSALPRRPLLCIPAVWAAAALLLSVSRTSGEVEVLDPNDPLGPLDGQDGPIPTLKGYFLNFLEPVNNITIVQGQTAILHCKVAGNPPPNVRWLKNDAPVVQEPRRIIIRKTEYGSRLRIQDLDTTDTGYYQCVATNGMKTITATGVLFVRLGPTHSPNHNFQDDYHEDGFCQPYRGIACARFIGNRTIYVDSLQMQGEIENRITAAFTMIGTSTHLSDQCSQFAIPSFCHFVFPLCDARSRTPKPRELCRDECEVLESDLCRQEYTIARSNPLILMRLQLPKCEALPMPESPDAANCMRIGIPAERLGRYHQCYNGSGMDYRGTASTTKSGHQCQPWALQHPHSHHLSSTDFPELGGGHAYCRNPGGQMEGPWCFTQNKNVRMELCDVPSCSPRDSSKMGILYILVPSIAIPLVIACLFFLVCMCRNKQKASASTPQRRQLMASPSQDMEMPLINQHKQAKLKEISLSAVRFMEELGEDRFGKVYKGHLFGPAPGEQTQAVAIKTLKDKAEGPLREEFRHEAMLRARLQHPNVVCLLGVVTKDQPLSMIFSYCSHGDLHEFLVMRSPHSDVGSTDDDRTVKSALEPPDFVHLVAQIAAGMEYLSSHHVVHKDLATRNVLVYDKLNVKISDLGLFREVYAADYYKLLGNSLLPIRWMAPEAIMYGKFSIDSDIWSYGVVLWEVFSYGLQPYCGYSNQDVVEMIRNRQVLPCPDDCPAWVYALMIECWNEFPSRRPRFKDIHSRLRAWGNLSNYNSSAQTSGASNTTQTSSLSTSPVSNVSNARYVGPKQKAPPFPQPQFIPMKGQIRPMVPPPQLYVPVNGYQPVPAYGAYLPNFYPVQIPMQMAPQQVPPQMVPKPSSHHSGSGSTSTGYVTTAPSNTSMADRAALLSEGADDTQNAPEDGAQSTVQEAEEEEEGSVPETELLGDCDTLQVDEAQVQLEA
UniProt Q15418, whole entry: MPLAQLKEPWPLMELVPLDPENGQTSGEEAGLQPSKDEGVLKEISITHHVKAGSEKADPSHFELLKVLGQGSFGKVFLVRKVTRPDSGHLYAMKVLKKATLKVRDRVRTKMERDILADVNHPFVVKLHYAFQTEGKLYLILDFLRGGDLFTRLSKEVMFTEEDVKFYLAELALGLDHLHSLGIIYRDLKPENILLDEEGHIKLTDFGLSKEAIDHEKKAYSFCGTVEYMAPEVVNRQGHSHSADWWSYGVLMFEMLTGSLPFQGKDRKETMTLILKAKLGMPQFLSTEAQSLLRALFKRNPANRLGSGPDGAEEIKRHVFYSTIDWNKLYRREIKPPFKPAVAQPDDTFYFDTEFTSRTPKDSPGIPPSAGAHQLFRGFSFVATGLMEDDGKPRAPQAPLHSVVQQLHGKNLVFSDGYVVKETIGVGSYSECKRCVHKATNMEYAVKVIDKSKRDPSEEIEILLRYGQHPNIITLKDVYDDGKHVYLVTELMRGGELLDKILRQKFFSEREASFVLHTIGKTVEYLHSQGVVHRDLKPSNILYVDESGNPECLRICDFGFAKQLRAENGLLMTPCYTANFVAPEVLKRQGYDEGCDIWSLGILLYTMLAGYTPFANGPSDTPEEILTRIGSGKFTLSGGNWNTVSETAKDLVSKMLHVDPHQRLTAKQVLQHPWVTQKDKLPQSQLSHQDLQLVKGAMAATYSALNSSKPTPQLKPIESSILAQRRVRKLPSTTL
UniProt Q9NYA1, whole entry: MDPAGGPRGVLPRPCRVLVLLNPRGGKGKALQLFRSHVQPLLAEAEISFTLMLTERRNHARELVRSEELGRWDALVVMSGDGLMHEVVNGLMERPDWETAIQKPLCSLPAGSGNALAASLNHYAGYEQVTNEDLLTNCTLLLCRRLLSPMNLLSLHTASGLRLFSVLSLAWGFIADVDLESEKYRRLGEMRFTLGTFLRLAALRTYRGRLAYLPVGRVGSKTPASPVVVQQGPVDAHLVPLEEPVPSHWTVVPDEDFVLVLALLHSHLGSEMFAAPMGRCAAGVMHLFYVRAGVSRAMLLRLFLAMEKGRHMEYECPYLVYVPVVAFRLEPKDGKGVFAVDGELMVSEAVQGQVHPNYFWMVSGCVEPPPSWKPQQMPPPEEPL
UniProt Q9Y6E0: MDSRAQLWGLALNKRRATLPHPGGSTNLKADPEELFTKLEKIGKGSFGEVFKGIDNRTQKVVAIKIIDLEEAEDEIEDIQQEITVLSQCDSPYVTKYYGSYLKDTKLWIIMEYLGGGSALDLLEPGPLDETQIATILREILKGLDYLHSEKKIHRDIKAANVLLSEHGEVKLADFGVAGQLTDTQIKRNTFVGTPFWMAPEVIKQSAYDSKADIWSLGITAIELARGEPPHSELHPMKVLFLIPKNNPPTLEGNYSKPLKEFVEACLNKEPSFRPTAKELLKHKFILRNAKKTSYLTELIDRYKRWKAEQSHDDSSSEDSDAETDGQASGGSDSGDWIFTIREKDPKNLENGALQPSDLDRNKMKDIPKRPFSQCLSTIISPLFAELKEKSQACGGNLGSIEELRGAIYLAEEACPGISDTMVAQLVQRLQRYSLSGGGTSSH
UniProt P07949, whole entry, looked up: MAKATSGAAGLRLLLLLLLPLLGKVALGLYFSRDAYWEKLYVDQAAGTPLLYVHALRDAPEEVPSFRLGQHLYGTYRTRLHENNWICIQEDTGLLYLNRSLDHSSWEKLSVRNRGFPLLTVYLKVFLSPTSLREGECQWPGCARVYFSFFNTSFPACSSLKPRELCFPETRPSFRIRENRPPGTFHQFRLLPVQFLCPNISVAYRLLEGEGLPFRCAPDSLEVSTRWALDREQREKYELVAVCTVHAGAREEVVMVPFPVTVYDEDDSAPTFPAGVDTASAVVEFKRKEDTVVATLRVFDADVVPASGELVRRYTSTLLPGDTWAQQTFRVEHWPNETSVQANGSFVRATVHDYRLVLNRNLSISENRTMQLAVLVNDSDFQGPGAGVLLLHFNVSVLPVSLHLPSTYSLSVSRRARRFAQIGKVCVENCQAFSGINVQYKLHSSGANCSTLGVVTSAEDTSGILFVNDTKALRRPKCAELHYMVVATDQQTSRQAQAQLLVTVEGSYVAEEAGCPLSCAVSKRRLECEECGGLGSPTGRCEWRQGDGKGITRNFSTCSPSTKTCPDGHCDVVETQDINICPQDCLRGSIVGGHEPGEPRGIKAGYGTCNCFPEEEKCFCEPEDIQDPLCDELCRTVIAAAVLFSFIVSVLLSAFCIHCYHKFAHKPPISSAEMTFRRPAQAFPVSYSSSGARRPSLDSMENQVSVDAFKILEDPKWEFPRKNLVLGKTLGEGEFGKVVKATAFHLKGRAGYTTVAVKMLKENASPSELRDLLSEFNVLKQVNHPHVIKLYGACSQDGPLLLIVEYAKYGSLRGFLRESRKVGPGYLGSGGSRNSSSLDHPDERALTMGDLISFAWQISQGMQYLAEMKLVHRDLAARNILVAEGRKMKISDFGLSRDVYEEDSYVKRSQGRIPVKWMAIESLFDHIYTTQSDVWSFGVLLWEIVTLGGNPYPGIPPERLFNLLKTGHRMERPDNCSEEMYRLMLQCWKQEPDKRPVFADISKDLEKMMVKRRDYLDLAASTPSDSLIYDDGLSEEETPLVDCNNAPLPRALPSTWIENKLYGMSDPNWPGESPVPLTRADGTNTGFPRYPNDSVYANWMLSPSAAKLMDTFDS
UniProt P07949, whole entry M918T, looked up: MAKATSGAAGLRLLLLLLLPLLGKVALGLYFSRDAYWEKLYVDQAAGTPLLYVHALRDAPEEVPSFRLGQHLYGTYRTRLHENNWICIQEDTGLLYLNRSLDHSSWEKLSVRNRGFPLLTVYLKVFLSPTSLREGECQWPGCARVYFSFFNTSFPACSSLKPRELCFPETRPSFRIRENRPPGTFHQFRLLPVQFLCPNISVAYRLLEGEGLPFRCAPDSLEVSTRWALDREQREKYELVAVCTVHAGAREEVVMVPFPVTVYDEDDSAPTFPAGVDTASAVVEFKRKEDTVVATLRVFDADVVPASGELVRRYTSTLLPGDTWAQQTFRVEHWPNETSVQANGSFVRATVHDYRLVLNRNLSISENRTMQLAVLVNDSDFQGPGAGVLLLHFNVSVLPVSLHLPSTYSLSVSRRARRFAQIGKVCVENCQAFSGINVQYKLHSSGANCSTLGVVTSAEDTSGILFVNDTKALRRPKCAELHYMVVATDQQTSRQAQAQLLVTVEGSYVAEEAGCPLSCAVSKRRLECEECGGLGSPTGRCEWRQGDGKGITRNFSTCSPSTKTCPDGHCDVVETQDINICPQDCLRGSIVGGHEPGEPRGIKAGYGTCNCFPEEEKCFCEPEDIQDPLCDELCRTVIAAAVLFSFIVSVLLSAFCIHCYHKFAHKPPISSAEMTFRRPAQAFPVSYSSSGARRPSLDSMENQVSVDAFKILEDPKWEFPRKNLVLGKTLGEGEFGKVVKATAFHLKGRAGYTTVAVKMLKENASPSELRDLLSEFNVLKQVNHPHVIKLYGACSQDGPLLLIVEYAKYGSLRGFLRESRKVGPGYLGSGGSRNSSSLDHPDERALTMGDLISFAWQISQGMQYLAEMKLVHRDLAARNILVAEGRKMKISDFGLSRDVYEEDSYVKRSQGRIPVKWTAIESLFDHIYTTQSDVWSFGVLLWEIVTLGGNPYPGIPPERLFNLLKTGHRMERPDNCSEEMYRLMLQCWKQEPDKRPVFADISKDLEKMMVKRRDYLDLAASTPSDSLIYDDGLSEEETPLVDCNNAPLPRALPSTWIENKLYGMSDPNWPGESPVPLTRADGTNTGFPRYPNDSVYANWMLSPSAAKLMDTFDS

Legend:
Experiment in all cases: kinase-Nluc reporter destabilization hit call (1 = scored as downregulated) (binary); higher = compound decreases kinase abundance
Settings in all cases: K562; 2-18 h
RIOK1 = RIOK1 (UniProt Q9BRS2)
RIPK1 = RIPK1 (UniProt Q13546)
RIPK2 = RIPK2 (UniProt O43353)
ROR2 = ROR2 (UniProt Q01974)
RPS6KA1 = RPS6KA1 (UniProt Q15418)
SPHK1 = SPHK1 (UniProt Q9NYA1)
SRC = SRC (UniProt P12931)
STK24 = STK24 (UniProt Q9Y6E0)
RET = RET (UniProt P07949)
[1] = biological target: RET_M918T (clone: RET_mut) (UniProt P07949)

Measured: kinase-Nluc reporter destabilization hit call

CCOc1cc(=O)[nH]cc1-c1ccc(CC(=O)Nc2cc(C(C)(C)C(F)(F)F)on2)c(F)c1 (10 µM)
inactive: RIOK1 = 0 | RIPK1 = 0 | RIPK2 = 0 | ROR2 = 0 | RPS6KA1 = 0 | SPHK1 = 0 | SRC 0 | STK24 = 0

COCCOc1cnc2ccn([C@H](C)c3nnc4c(F)cc(-c5cnn(C)c5)cn34)c(=O)c2c1 (10 µM)
inactive: RET 0 | [1] 0 | RIOK1 = 0 | RIPK1 = 0 | RIPK2 = 0 | ROR2 = 0 | RPS6KA1 = 0 | SPHK1 = 0 | SRC 0 | STK24 = 0

O=c1c(O)c(-c2ccc(O)c(O)c2)oc2cc(O)c(O)c(O)c12 [Quercetagetin] (10 µM)
inactive: RET 0 | [1] 0 | RIOK1 = 0 | RIPK1 = 0 | RIPK2 = 0 | ROR2 = 0 | RPS6KA1 = 0 | SPHK1 = 0 | SRC 0 | STK24 = 0

C[C@@H]1CN(Cc2ccc(F)cc2)[C@@H](C)CN1C(=O)c1cc2c(C(=O)C(=O)N(C)C)cn(C)c2cc1Cl [Talmapimod] (10 µM)
inactive: RET 0 | [1] 0 | RIOK1 = 0 | RIPK1 = 0 | RIPK2 = 0 | ROR2 = 0 | RPS6KA1 = 0 | SPHK1 = 0 | SRC 0 | STK24 = 0

2 entries drawn at random from the list so far, as already listed:
C[C@@H]1CN(Cc2ccc(F)cc2)[C@@H](C)CN1C(=O)c1cc2c(C(=O)C(=O)N(C)C)cn(C)c2cc1Cl [Talmapimod] (10 µM)
inactive: RET 0 | [1] 0 | RIOK1 = 0 | RIPK1 = 0 | RIPK2 = 0 | ROR2 = 0 | RPS6KA1 = 0 | SPHK1 = 0 | SRC 0 | STK24 = 0

CCOc1cc(=O)[nH]cc1-c1ccc(CC(=O)Nc2cc(C(C)(C)C(F)(F)F)on2)c(F)c1 (10 µM)
inactive: RIOK1 = 0 | RIPK1 = 0 | RIPK2 = 0 | ROR2 = 0 | RPS6KA1 = 0 | SPHK1 = 0 | SRC 0 | STK24 = 0

Additional compounds.

CC(C)(CCCCCC(O)CCCCCC(C)(C)C(=O)O)C(=O)O [Bempedoic acid] (10 µM)
inactive: RET 0 | [1] 0 | RIOK1 = 0 | RIPK1 = 0 | RIPK2 = 0 | ROR2 = 0 | RPS6KA1 = 0 | SPHK1 = 0 | SRC 0 | STK24 = 0

Nc1ccc(-c2cccc(C(=O)Nc3cnc4nc(N5CCOCC5)oc4c3)n2)cn1 (10 µM)
inactive: RET 0 | [1] 0 | RIOK1 = 0 | RIPK1 = 0 | RIPK2 = 0 | ROR2 = 0 | RPS6KA1 = 0 | SPHK1 = 0 | SRC 0 | STK24 = 0

CN(C)CCOc1cc(-c2cn[nH]c2)ccc1NC(=O)C1COc2ccccc2O1 (configuration not stated) (10 µM)
inactive: RET 0 | [1] 0 | RIOK1 = 0 | RIPK1 = 0 | RIPK2 = 0 | ROR2 = 0 | RPS6KA1 = 0 | SPHK1 = 0 | SRC 0 | STK24 = 0

CN1CCN(c2ccc(-c3ccncc3-c3cc(F)c(O)c(F)c3)cc2)CC1 (10 µM)
inactive: RET 0 | [1] 0 | RIOK1 = 0 | RIPK1 = 0 | RIPK2 = 0 | ROR2 = 0 | RPS6KA1 = 0 | SPHK1 = 0 | SRC 0 | STK24 = 0

Cc1ccc2c(NS(=O)(=O)c3ccccc3Cl)cccc2c1Oc1ncccc1-c1ccnc(N[C@H]2CCCNC2)n1 (2.5 µM)
inactive: RET 0 | [1] 0 | RIOK1 = 0 | RIPK1 = 0 | RIPK2 = 0 | ROR2 = 0 | RPS6KA1 = 0 | SPHK1 = 0 | SRC 0 | STK24 = 0

COc1cc2nccc(Nc3cccc(Oc4ccccc4)c3)c2cc1OC (2.5 µM)
inactive: RET 0 | [1] 0 | RIOK1 = 0 | RIPK1 = 0 | RIPK2 = 0 | ROR2 = 0 | RPS6KA1 = 0 | SPHK1 = 0 | SRC 0 | STK24 = 0

O=C(O)/C=C(\CCc1ccc(Cl)cc1)c1ccccc1 (10 µM)
inactive: RET 0 | [1] 0 | RIOK1 = 0 | RIPK1 = 0 | RIPK2 = 0 | ROR2 = 0 | RPS6KA1 = 0 | SPHK1 = 0 | SRC 0 | STK24 = 0

CN(C)c1cc[n+](Cc2ccc(OCCOc3ccc(C[n+]4ccc(N(C)C)cc4)cc3)cc2)cc1 (10 µM)
inactive: RET 0 | [1] 0 | RIOK1 = 0 | RIPK1 = 0 | RIPK2 = 0 | ROR2 = 0 | RPS6KA1 = 0 | SPHK1 = 0 | SRC 0 | STK24 = 0

CN1C(=O)[C@@H](NC(=O)c2cc(Cc3ccccc3)on2)COc2ccccc21 (10 µM)
inactive: RET 0 | [1] 0 | RIOK1 = 0 | RIPK2 = 0 | ROR2 = 0 | RPS6KA1 = 0 | SPHK1 = 0 | SRC 0 | STK24 = 0

N#Cc1cc(-c2ccnc(Nc3ccc(N4CCOCC4)cc3)n2)ccc1OC1CCOCC1 (10 µM)
inactive: RET 0 | [1] 0 | RIOK1 = 0 | RIPK1 = 0 | RIPK2 = 0 | ROR2 = 0 | RPS6KA1 = 0 | SPHK1 = 0 | SRC 0 | STK24 = 0

CC(=O)Nc1nc(C)c(-c2cc(C)c3c(c2)CN([C@@H](C)C2CC2)C3=O)s1 (10 µM)
inactive: RET 0 | [1] 0 | RIOK1 = 0 | RIPK1 = 0 | RIPK2 = 0 | ROR2 = 0 | RPS6KA1 = 0 | SPHK1 = 0 | SRC 0 | STK24 = 0

CO/N=C1/C(c2c(O)[nH]c3cc(Cl)c(Cl)cc23)=Nc2ccccc21 (10 µM)
inactive: RET 0 | [1] 0 | RIOK1 = 0 | RIPK1 = 0 | RIPK2 = 0 | ROR2 = 0 | RPS6KA1 = 0 | SPHK1 = 0 | SRC 0 | STK24 = 0

CCC(F)(F)c1cc(N2CCC(S(C)(=O)=O)CC2)nc2sc(C(N)=O)c(N)c12 (10 µM)
inactive: RET 0 | [1] 0 | RIOK1 = 0 | RIPK1 = 0 | RIPK2 = 0 | ROR2 = 0 | RPS6KA1 = 0 | SPHK1 = 0 | SRC 0 | STK24 = 0

CN(C[C@@H]1COCCO1)S(=O)(=O)Nc1ccc2ccc3ncc(-c4cnn(C)c4)cc3c(=O)c2c1 (2.5 µM)
inactive: RIOK1 = 0 | RIPK1 = 0 | RIPK2 = 0 | ROR2 = 0 | RPS6KA1 = 0 | SPHK1 = 0 | SRC 0 | STK24 = 0

O=C(Nc1ccc(Cl)cc1)C1CN(C(=O)c2cccc(-c3ccco3)c2)CC(F)(F)C1 (configuration not stated) (2.5 µM)
inactive: RET 0 | [1] 0 | RIOK1 = 0 | RIPK1 = 0 | RIPK2 = 0 | ROR2 = 0 | RPS6KA1 = 0 | SPHK1 = 0 | SRC 0 | STK24 = 0

Cc1cncc2cccc(S(=O)(=O)N3CCCNC[C@@H]3C)c12 [H-1152 (dihydrochloride)] (10 µM)
inactive: RET 0 | [1] 0 | RIOK1 = 0 | RIPK1 = 0 | RIPK2 = 0 | ROR2 = 0 | RPS6KA1 = 0 | SPHK1 = 0 | SRC 0 | STK24 = 0

CS(=O)(=O)c1cccc(CNc2nc(Nc3ccc4c(c3)CCC(=O)N4)ncc2C(F)(F)F)c1 (10 µM)
inactive: RET 0 | [1] 0 | RIOK1 = 0 | RIPK1 = 0 | RIPK2 = 0 | ROR2 = 0 | RPS6KA1 = 0 | SPHK1 = 0 | SRC 0 | STK24 = 0

COc1ccc(Cl)cc1N(CC(=O)Nc1ccc2c(c1)OCO2)S(=O)(=O)c1ccccc1 (2.5 µM)
inactive: RET 0 | [1] 0 | RIOK1 = 0 | RIPK1 = 0 | RIPK2 = 0 | ROR2 = 0 | RPS6KA1 = 0 | SPHK1 = 0 | SRC 0 | STK24 = 0

CC(C1CC1)n1cnc2c(NCc3cccc(C(F)(F)F)c3)nc(NCCN(C)C)nc21 (configuration not stated) (10 µM)
inactive: RET 0 | [1] 0 | RIOK1 = 0 | RIPK1 = 0 | RIPK2 = 0 | ROR2 = 0 | RPS6KA1 = 0 | SPHK1 = 0 | SRC 0 | STK24 = 0

Cn1cc(-c2nc(N[C@@H]3CCCC[C@@H]3N)c(F)c3c2C(=O)NC3)cn1 [TAK-659 (hydrochloride)] (2 µM)
inactive: RET 0 | [1] 0 | RIOK1 = 0 | RIPK1 = 0 | RIPK2 = 0 | ROR2 = 0 | RPS6KA1 = 0 | SPHK1 = 0 | SRC 0 | STK24 = 0

COc1cccc(-c2cc(=O)c3ccccc3o2)c1N (10 µM)
inactive: RET 0 | [1] 0 | RIOK1 = 0 | RIPK1 = 0 | RIPK2 = 0 | ROR2 = 0 | RPS6KA1 = 0 | SPHK1 = 0 | SRC 0 | STK24 = 0

CCNC(=O)Nc1ccc(-c2nc3c(c(N4CCOC[C@@H]4C)n2)CCN(C2COC2)C3)cc1 (2.5 µM)
inactive: RET 0 | [1] 0 | RIOK1 = 0 | RIPK1 = 0 | RIPK2 = 0 | ROR2 = 0 | RPS6KA1 = 0 | SPHK1 = 0 | STK24 = 0

Nc1nc(Nc2ccc3c(c2)CC[C@@H](N2CCCC2)CC3)nn1-c1cc2c(nn1)-c1ccccc1CCC2 [Bemcentinib] (2.5 µM)
inactive: RET 0 | [1] 0 | RIOK1 = 0 | RIPK1 = 0 | RIPK2 = 0 | ROR2 = 0 | RPS6KA1 = 0 | SPHK1 = 0 | SRC 0 | STK24 = 0

COc1cc(N2CCC(N3CCN(C)CC3)CC2)ccc1Nc1ncnc(Nc2ccccc2S(=O)(=O)C(C)C)n1 (10 µM)
inactive: RET 0 | [1] 0 | RIOK1 = 0 | RIPK1 = 0 | RIPK2 = 0 | ROR2 = 0 | RPS6KA1 = 0 | SPHK1 = 0 | SRC 0 | STK24 = 0

O=S(=O)(c1ccc(O)cc1O)N1Cc2cc(O)cc(O)c2C1 (10 µM)
inactive: RET 0 | [1] 0 | RIOK1 = 0 | RIPK1 = 0 | RIPK2 = 0 | ROR2 = 0 | RPS6KA1 = 0 | SPHK1 = 0 | SRC 0 | STK24 = 0

N#Cc1cc(N2CCC(C(=O)N3N=CC[C@H]3c3cc(F)cc(F)c3)CC2)ncn1 (10 µM)
inactive: RET 0 | [1] 0 | RIOK1 = 0 | RIPK2 = 0 | ROR2 = 0 | RPS6KA1 = 0 | SPHK1 = 0 | SRC 0 | STK24 = 0

Nc1ccc(O)c(C(=O)O)c1 [5-Aminosalicylic Acid] (10 µM)
inactive: RET 0 | [1] 0 | RIOK1 = 0 | RIPK1 = 0 | RIPK2 = 0 | ROR2 = 0 | RPS6KA1 = 0 | SPHK1 = 0 | SRC 0 | STK24 = 0

COc1cc(N2CCC(O)CC2)ccc1Nc1nc(Nc2ccccc2S(=O)(=O)C(C)C)c2[nH]cnc2n1 (10 µM)
inactive: RET 0 | [1] 0 | RIOK1 = 0 | RIPK1 = 0 | RIPK2 = 0 | ROR2 = 0 | RPS6KA1 = 0 | SPHK1 = 0 | SRC 0 | STK24 = 0

COc1cc2ncnc(Nc3cc(Br)c(O)c(Br)c3)c2cc1OC (2.5 µM)
inactive: RET 0 | [1] 0 | RIOK1 = 0 | RIPK2 = 0 | ROR2 = 0 | RPS6KA1 = 0 | SPHK1 = 0 | SRC 0 | STK24 = 0

O=C1NC(=O)C(Cc2c[nH]c3c(Cl)cccc23)N1 (configuration not stated) [Necroptosis-IN-1] (10 µM)
inactive: RET 0 | [1] 0 | RIOK1 = 0 | RIPK1 = 0 | RIPK2 = 0 | ROR2 = 0 | RPS6KA1 = 0 | SPHK1 = 0 | SRC 0 | STK24 = 0
